Data as given in patent US9598389B2, “Dihydrobenzofuran derivatives as insecticidal compounds” (SYNGENTA PARTICIPATIONS AG, priority 2013, dated 2017).
Some results were stated once for a whole list of compounds, not compound by compound. At least one compound was matched to its structure with a doubt left.

Columns and labels:
Assay type in all cases: in vivo
[1] = tested on: Spodoptera Littoralis (Egyptian Cotton Leaf Worm); test: Spodoptera littoralis cotton leaf disc spray test; details: application rate of 200 ppm; L1 larvae; 3 days after infestation
[2] = tested on: Tetranychus urticae (Two-Spotted Spider Mite); test: Tetranychus urticae bean leaf disc spray test; details: application rate of 200 ppm; 8 days after infestation
Protocol: Tetranychus urticae (Two-Spotted Spider Mite):
Bean leaf discs on agar in 24-well microtiter plates were sprayed with aqueous test solutions prepared from 10,000 ppm DMSO stock solutions. After drying the leaf discs were infested with a mite population of mixed ages. The samples were assessed for mortality on mixed population (mobile stages) 8 days after infestation.

[3] = tested on: Plutella xylostella (Diamond Back Moth); test: Plutella xylostella L2 larvae test on artificial diet; details: application rate of 200 ppm, 5 days after infestation
Protocol: Plutella xylostella (Diamond Back Moth):
(§1) 24-well microtiter plates with artificial diet were treated with aqueous test solutions prepared from 10,000 ppm DMSO stock solutions by pipetting. After drying, the plates were infested with L2 larvae (10 to 15 per well). The samples were assessed for mortality and growth inhibition in comparison to untreated samples 5 days after infestation.

[4] = tested on: Diabrotica balteata (Corn Root Worm); test: Diabrotica balteata L2 larvae test on artificial diet; details: application rate of 200 ppm, 5 days after infestation
Protocol: Diabrotica balteata (Corn Root Worm):
as §1, with “(6” for “(10”, “10” for “15”

[5] = tested on: Heliothis virescens (Tobacco Budworm); test: Heliothis virescens egg/larval test on artificial diet; details: application rate of 200 ppm; eggs 0-24 h old; 5 days after infestation
Protocol: Heliothis virescens (Tobacco Budworm):
Eggs (0-24 h old) were placed in 24-well microtiter plates on artificial diet and treated with aqueous test solutions prepared from 10,000 ppm DMSO stock solutions by pipetting. The samples were assessed for egg and larval mortality 5 days after infestation.

[6] = tested on: Thrips tabaci (Onion Thrips); test: Thrips tabaci sunflower leaf disc spray test; details: application rate of 200 ppm; population of mixed ages; 6 days after infestation
Protocol: Thrips tabaci (Onion Thrips):
Sunflower leaf discs were placed on agar in 24-well microtiter plates and sprayed with aqueous test solutions prepared from 10,000 ppm DMSO stock solutions. After drying the leaf discs were infested with a thrips population of mixed ages. The samples were assessed for mortality 6 days after infestation.

SMILES | control (at least one of mortality, anti-feedant effect, growth inhibition) [1] | mortality on mixed population (mobile stages) [2] | effect in at least one of the two categories (mortality or growth inhibition) [3] | effect in at least one of the two categories (mortality or growth inhibition) [4] | egg or larval mortality [5] | mortality [6]
O=C(CC(F)(F)F)Nc1cc(-c2ccc3c(c2)CC(c2cccc(C(F)(F)F)c2)(C(F)(F)F)O3)ccc1F (stereo not drawn) [Compound 196] | at least 80% | at least 80% | ≥ 80% | ≥ 80% | ≥ 80% | ≥ 80%
CC(C)C(=O)Nc1cc(-c2ccc3c(c2)CC(c2cc(Cl)cc(Cl)c2)(C(F)(F)F)O3)ccc1C#N (racemic) [Compound 226] | at least 80% | at least 80% | ≥ 80% | ≥ 80% | ≥ 80% | ≥ 80%
N#Cc1ccc(-c2ccc3c(c2)CC(c2cc(Cl)cc(Cl)c2)(C(F)(F)F)O3)cc1NC(=O)C1CC1 (stereo not drawn) [Compound 184] | at least 80% | at least 80% | ≥ 80% | ≥ 80% | ≥ 80% | ≥ 80%
O=C(Nc1cccc(-c2ccc3c(c2)CC(c2cc(Cl)cc(Cl)c2)(C(F)(F)F)O3)c1)c1cncnc1 (racemic) [Compound 98] | at least 80% | at least 80% | ≥ 80% | ≥ 80% | ≥ 80% | ≥ 80%
CCC(=O)Nc1cccc(-c2ccc3c(c2)CC(c2cc(Cl)c(F)c(Cl)c2)(C(F)(F)F)O3)c1 (stereo not drawn) [Compound 195] | at least 80% | at least 80% | ≥ 80% | ≥ 80% | ≥ 80% | ≥ 80%
O=C(CC(F)(F)F)Nc1cccc(-c2ccc3c(c2)CC(c2cccc(C(F)(F)F)c2)(C(F)(F)F)O3)c1 (stereo not drawn) [Compound 175] | at least 80% | at least 80% | ≥ 80% | ≥ 80% | ≥ 80% | ≥ 80%
CC(=O)Nc1cc(-c2ccc3c(c2)CC(c2cc(Cl)c(F)c(Cl)c2)(C(F)(F)F)O3)ccc1C#N (stereo not drawn) [Compound 228] | at least 80% | at least 80% | ≥ 80% | ≥ 80% | ≥ 80% | ≥ 80%
O=C(CC(F)(F)F)Nc1ccc(F)c(-c2ccc3c(c2)CC(c2cc(Cl)cc(Cl)c2)(C(F)(F)F)O3)c1 (stereo not drawn) [Compound 156] | at least 80% | at least 80% | ≥ 80% | ≥ 80% | ≥ 80% | ≥ 80%
CC1(C(=O)Nc2cccc(-c3ccc4c(c3)CC(c3cccc(C(F)(F)F)c3)(C(F)(F)F)O4)c2)COC1 (stereo not drawn) [Compound 170] | at least 80% | at least 80% | ≥ 80% | ≥ 80% | ≥ 80% | ≥ 80%
O=C(Nc1cccc(-c2ccc3c(c2)CC(c2cccc(C(F)(F)F)c2)(C(F)(F)F)O3)c1)c1cncnc1 (stereo not drawn) [Compound 113] | at least 80% | at least 80% | ≥ 80% | ≥ 80% | ≥ 80% | ≥ 80%
